Reference: paper PMC7819943, “Rice protein-binding microarrays: a tool to detect cis-acting elements near promoter regions in rice”
The list shows a part of the results.

The chains behind the UniProt entries cited, without tags or fusion partners.
UniProt Q0JBA9, entry or part of it: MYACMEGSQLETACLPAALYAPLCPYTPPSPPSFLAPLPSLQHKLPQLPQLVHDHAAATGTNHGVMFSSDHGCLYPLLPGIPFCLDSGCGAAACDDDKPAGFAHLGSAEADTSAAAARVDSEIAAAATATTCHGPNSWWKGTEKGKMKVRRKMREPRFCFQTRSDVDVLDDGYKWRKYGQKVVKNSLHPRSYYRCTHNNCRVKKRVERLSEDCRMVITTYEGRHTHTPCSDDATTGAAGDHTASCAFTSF

Target: OsWRKY34 (Oryza sativa, UniProt Q0JBA9 1-250)
Assay: protein-binding microarray (RPBM); PBS, 2% BSA, 51.3 ng/ul salmon testes DNA, 50 uM zinc acetate, 200 nM TF, 25 C, 1 h; high values mean tight binding
Details: protein: recombinant; tags: N-terminal polyhistidine and DsRed monomer fusion (pET32a); label: CyDye5-dUTP incorporated in the synthesized complementary strand; 3' TTTTT single-stranded linker to array surface; dsDNA, one strand shown
Outline: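 The binding signal is fluorescence intensity per array feature (arbitrary units). Readings came from an Axon 4000B scanner after a washed, 2% BSA-blocked, double-stranded custom Agilent array had been incubated for 1 h at 25 °C with 200 nM protein and 50 µM zinc acetate. The protein was a Ni–NTA-purified transcription factor fused N-terminally to polyhistidine and DsRed, expressed in E. coli BL21-CodonPlus.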

Q: With “GCGTATCCGTATTTGGTGGAGTAGGGGAACGGACTCGTGACGGAGTCACCTAGTGCAG” as the sequence, how does the binding signal read?
A: The binding signal was 9600 fluorescence intensity (a.u.).

Q: Which binding signal does the source give for “CGGTGACCTCAGTTTGATATCGTGTTGAAACCGCTCTTCTCGGAGTCACCTAGTGCAG” here?
A: The binding signal was 8220 fluorescence intensity (a.u.).

Q: With “TAATATATGGGATTAGGTGATCGAGAAAAATCCATCGTGACGGAGTCACCTAGTGCAG” as the sequence, how does the binding signal read?
A: Its binding signal is 9000 fluorescence intensity (a.u.).

Q: Which binding signal does the source give for “GAAAATCCTTGTTCTTACCCATCCTTACTCACACTCTGTTCGGAGTCACCTAGTGCAG” here?
A: Its binding signal is 10200 fluorescence intensity (a.u.).

Q: For “TTAGGTGCCTGCAGCAGAGCCTCTTACTGTTTCTCATGAACGGAGTCACCTAGTGCAG”, which binding signal is on record?
A: Its binding signal is 8450 fluorescence intensity (a.u.).

Q: With “GGACCACACCAATCTATCTAGTTTAGTGCTCATTTGTCATCGGAGTCACCTAGTGCAG” as the sequence, how does the binding signal read?
A: The binding signal was 8130 fluorescence intensity (a.u.).

Q: Which binding signal does the source give for “TATGCCTTCCACTTCCACGTCAGCTTTCCCACACTGGTCTCGGAGTCACCTAGTGCAG” here?
A: Its binding signal is 8280 fluorescence intensity (a.u.).

Q: For “GCACGCACTCATCGCCATCGCCTGCAATCCGACAAGTTCTCGGAGTCACCTAGTGCAG”, which binding signal is on record?
A: Its binding signal is 10300 fluorescence intensity (a.u.).

Q: Which binding signal does the source give for “CTTCAACACAGTCTTTGAGATGCTACTTTGACTAGAAATACGGAGTCACCTAGTGCAG” here?
A: Its binding signal is 9260 fluorescence intensity (a.u.).

Q: “CCCGCAGATTGGATTGGATTGGGTTGGATTGGATTGGATGCGGAGTCACCTAGTGCAG” was tested. Which binding signal did it give?
A: The binding signal was 10300 fluorescence intensity (a.u.).

Q: With “TCCCCAACGATCTCATTCTCTTGCTGTCTTGCGTGTTCATCGGAGTCACCTAGTGCAG” as the sequence, how does the binding signal read?
A: Its binding signal is 8730 fluorescence intensity (a.u.).

Q: For “CATCCTTGGCACTACTGTCATTTTACATCCAGCCTAAGTGCGGAGTCACCTAGTGCAG”, which binding signal is on record?
A: The binding signal was 10700 fluorescence intensity (a.u.).

Q: Which binding signal does the source give for “ACAGTCAGTCTCATTACTGGAGTTGCATGCCTGCAATCAACGGAGTCACCTAGTGCAG” here?
A: Its binding signal is 8060 fluorescence intensity (a.u.).

Q: “TCTGGCCTCTGGGATTATTCCTACTAACTTCATATTTTAACGGAGTCACCTAGTGCAG” was tested. Which binding signal did it give?
A: The binding signal was 8970 fluorescence intensity (a.u.).

Q: For “AAAAAGTCAACAGCATCAAATATTTTGGGGTGGAGGGAGTCGGAGTCACCTAGTGCAG”, which binding signal is on record?
A: Its binding signal is 10400 fluorescence intensity (a.u.).

Q: How did the binding signal turn out when “TTCTGCACTTCTGCTTCACCCCGGCTGACATTGCACACCGCGGAGTCACCTAGTGCAG” was run?
A: The binding signal was 9020 fluorescence intensity (a.u.).

Q: Which binding signal does the source give for “GGCCGGTTGATTGTGTGGTTGGTGAGGGCGCGAGCTCTGCCGGAGTCACCTAGTGCAG” here?
A: Its binding signal is 9020 fluorescence intensity (a.u.).

Q: “GGCCCAATATAGGCCTTGTTTGGGTGGGCATCAATCTAGACGGAGTCACCTAGTGCAG” was tested. Which binding signal did it give?
A: Its binding signal is 8830 fluorescence intensity (a.u.).

Q: Which binding signal does the source give for “GCTCTCCGGAGTTTTGGAACCCTTGTAACACTCGACCATACGGAGTCACCTAGTGCAG” here?
A: Its binding signal is 9400 fluorescence intensity (a.u.).

Q: “CGAGCCCGTCCAGGGCCAGGTACTTTCACTCTCACCTCACCGGAGTCACCTAGTGCAG” was tested. Which binding signal did it give?
A: Its binding signal is 8960 fluorescence intensity (a.u.).

Q: Which binding signal does the source give for “TCCTCTCCTTCACTCGTACTGTTTCTGATATCATTGATTGCGGAGTCACCTAGTGCAG” here?
A: Its binding signal is 8590 fluorescence intensity (a.u.).

Q: How did the binding signal turn out when “GGGCCAAAATTTTTATTCCTAATTTTTTTTTTTCGTTTTGCGGAGTCACCTAGTGCAG” was run?
A: Its binding signal is 8420 fluorescence intensity (a.u.).

Q: With “AACCTTGCATCTCAGCCCATTTCGACATATCCCCAATTCCCGGAGTCACCTAGTGCAG” as the sequence, how does the binding signal read?
A: The binding signal was 9310 fluorescence intensity (a.u.).

Q: With “TACTATTATCTCTTTTGTATTACAAACATTCGAGTATAGTCGGAGTCACCTAGTGCAG” as the sequence, how does the binding signal read?
A: Its binding signal is 8180 fluorescence intensity (a.u.).

Q: With “GTTCCTGATATGTTTTTTTGTTGGTTGCAGGATGGCAAGACGGAGTCACCTAGTGCAG” as the sequence, how does the binding signal read?
A: Its binding signal is 8880 fluorescence intensity (a.u.).

Q: “AGGGAGTATATGTGATGGACACAAAAGTTACTTTCATGATCGGAGTCACCTAGTGCAG” was tested. Which binding signal did it give?
A: The binding signal was 8190 fluorescence intensity (a.u.).

Q: With “GATAACCTATTGAGTGACATTTTATCCTTTGCACTTTAATCGGAGTCACCTAGTGCAG” as the sequence, how does the binding signal read?
A: The binding signal was 11200 fluorescence intensity (a.u.).

Q: “AACACAGCCTTATAACCTCAAGAAGCTTTCACGTTAATCCCGGAGTCACCTAGTGCAG” was tested. Which binding signal did it give?
A: The binding signal was 8690 fluorescence intensity (a.u.).

Q: How did the binding signal turn out when “CTCCTCCACTTTTCTTCGCTTCCTCACTACCACCTTCTCGCGGAGTCACCTAGTGCAG” was run?
A: The binding signal was 10300 fluorescence intensity (a.u.).

Q: “TTTTCATGTGTTCGCATCACCGCTCTTGAGTCTTGACTTTCGGAGTCACCTAGTGCAG” was tested. Which binding signal did it give?
A: The binding signal was 12200 fluorescence intensity (a.u.).

Q: How did the binding signal turn out when “ACAAGTGTTATCCTGAACCATACCTCGTGTCAGTCTGTCCCGGAGTCACCTAGTGCAG” was run?
A: The binding signal was 9970 fluorescence intensity (a.u.).

Q: How did the binding signal turn out when “TCAATTCCATTTCCATCCTACTCCATCATCAGTGTCAGGTCGGAGTCACCTAGTGCAG” was run?
A: The binding signal was 9320 fluorescence intensity (a.u.).

Q: Which binding signal does the source give for “CCATTACGCCGCGGTCGTTTCCTCTTCTCTTGCGTCCCATCGGAGTCACCTAGTGCAG” here?
A: The binding signal was 10900 fluorescence intensity (a.u.).

Q: How did the binding signal turn out when “ACCTTTCTCACTACACGCCATTCCGCTCGCGTCCAATTGTCGGAGTCACCTAGTGCAG” was run?
A: Its binding signal is 10100 fluorescence intensity (a.u.).

Q: How did the binding signal turn out when “GGTTTTGCGGTTCGAGCACGGTTTTGTATCCCGATGATAACGGAGTCACCTAGTGCAG” was run?
A: The binding signal was 11100 fluorescence intensity (a.u.).

Q: Which binding signal does the source give for “AACAATCAGGACAATCGTGTTTCAACTGCTGAGTTTCTTACGGAGTCACCTAGTGCAG” here?
A: Its binding signal is 8390 fluorescence intensity (a.u.).

Q: Which binding signal does the source give for “GCCCACCACCACCTGTGTCCTCTTCCTCTCCTCTCCTTGCCGGAGTCACCTAGTGCAG” here?
A: Its binding signal is 9460 fluorescence intensity (a.u.).

Q: Which binding signal does the source give for “ATTTCTCACCGGCCGTTGACCTTCTTCTTGTGATGCTTATCGGAGTCACCTAGTGCAG” here?
A: Its binding signal is 13800 fluorescence intensity (a.u.).

Q: Which binding signal does the source give for “CCACTCTTCTTGCACTTCTCAATCCAATTCCATCTCGATCCGGAGTCACCTAGTGCAG” here?
A: The binding signal was 9980 fluorescence intensity (a.u.).

Q: With “TTTTGGTTACACCCACTACCCAAAAGCACAAGCAGCTTACCGGAGTCACCTAGTGCAG” as the sequence, how does the binding signal read?
A: Its binding signal is 8500 fluorescence intensity (a.u.).

Q: “TCCCTACCTACCCACCATCTGCAGCAACCACAGGGCCAATCGGAGTCACCTAGTGCAG” was tested. Which binding signal did it give?
A: The binding signal was 8230 fluorescence intensity (a.u.).

Q: With “GATATGCATTTTCCCTGCTTTCCCTGCTTTTCCCCTTTTTCGGAGTCACCTAGTGCAG” as the sequence, how does the binding signal read?
A: The binding signal was 16400 fluorescence intensity (a.u.).
